Laboratory results published in PMC12638101.
No constants are given. Whether binding was seen depends on the method and setting. Binding seen in cells or lysates may run through a third protein. Some binding calls cover weakened binding; strength is not graded here.

The chains behind the UniProt entries cited, without tags or fusion partners. Where a name states a change or a piece, a line headed by the entry shows the natural chain unless it says otherwise. Residues count along the entry.
UniProt P11142: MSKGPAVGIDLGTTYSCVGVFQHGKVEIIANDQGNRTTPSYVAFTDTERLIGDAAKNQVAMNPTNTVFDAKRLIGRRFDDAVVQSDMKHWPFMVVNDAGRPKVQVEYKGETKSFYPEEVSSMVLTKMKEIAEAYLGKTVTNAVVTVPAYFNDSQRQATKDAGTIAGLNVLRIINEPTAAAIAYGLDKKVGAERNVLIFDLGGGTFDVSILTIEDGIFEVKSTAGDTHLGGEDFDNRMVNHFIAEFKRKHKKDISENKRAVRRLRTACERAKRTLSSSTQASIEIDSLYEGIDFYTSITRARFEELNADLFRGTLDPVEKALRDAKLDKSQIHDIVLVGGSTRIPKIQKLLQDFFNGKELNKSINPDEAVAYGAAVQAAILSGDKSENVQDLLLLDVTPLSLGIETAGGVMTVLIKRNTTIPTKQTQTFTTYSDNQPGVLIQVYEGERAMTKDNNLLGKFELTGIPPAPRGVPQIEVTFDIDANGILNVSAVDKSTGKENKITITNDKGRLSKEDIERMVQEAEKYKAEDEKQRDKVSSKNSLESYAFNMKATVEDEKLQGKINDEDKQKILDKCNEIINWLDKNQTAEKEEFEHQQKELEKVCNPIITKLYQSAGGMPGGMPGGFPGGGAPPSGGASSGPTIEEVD
FLAG-HSC70 (aa 1-386): residues 1-386 of P11142
UniProt P46937: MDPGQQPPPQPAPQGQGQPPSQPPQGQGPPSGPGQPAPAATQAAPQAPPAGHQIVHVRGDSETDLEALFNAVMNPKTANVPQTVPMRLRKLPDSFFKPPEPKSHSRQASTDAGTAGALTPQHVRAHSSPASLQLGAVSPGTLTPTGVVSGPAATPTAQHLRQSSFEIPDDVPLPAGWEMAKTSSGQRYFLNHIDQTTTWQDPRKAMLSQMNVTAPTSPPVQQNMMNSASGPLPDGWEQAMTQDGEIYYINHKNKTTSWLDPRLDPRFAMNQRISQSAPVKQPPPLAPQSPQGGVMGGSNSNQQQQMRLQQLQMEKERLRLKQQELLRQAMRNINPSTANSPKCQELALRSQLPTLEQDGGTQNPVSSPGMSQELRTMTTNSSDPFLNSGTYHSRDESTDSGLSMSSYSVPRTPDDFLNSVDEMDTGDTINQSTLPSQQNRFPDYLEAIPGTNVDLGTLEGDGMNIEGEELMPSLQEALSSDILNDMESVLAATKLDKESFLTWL

Key:
FLAG-HSC70 = FLAG-HSC70 (UniProt P11142); experiment: co-IP; Huh-7.5 cells co-transfected, harvested 48 h after transfection; lysate (150 mM NaCl, 50 mM Tris-HCl pH 7.5, 1% NP-40, 0.1% SDS, 1% sodium deoxycholic acid, 1 mM EDTA) immunoprecipitated with anti-FLAG mAb at 4°C, five washes, blot with anti-HA and anti-FLAG
FLAG-HSC70 (aa 1-386) = FLAG-HSC70 (aa 1-386) (UniProt P11142); experiment: as above

| binding (FLAG-HSC70) | binding (FLAG-HSC70 (aa 1-386)) | Substance |
| --- | --- | --- |
| binds | no binding | HA-YAP1 wild-type (Yes-associated protein 1) (from UniProt P46937 1-504) |
| binds |  | YAP1 phosphorylated at serine 127 (from UniProt P46937 1-504) |
